29 compounds from the supplement of paper PMC11348887 can be followed below.

Holding throughout (details): 5 µM; treatment: days 7-14 after plating, readout day 21
The test system of assay [1] is hPSC-derived cortical neurons (WA09). Put plainly: nucleus area z-score vs screen plate; higher = larger nuclei (more mature).
The test system is the same in assay [2]. Put plainly: total neurite length per nucleus (MAP2) z-score; higher = more neurite growth.
The test system is the same in assay [3]. In words: nucleus roundness z-score vs screen plate; higher = rounder nuclei (more mature).
For assay [4] the test system is unchanged. In words: KCl-induced FOS+/EGR-1+ double-positive nuclei fraction z-score (KCl minus unstimulated); higher = stronger activity-induced IEG response.

Structures can show the parent of a compound that is named as a salt. The list shows a part of the results. Most values lie at the level of the controls, where differences are scatter. Where a SMILES comes first, the peptide text is derived from it. The star is where a group is joined. Cbz = O=C(OCc1ccccc1)*; CH2F = FC*

As for `CN(C)CC(c1ccc(O)cc1)C1(O)CCCCC1` (stereo unspecified) [Desvenlafaxine], the nucleus area z-score in assay [1] is -0.046. Further, in assay [2], the “total neurite length per nucleus (z-score)” value came to 2.29. Further, the nucleus roundness z-score in assay [3] came out at 0.0285. Further, the “KCl-induced FOS+/EGR-1+ double-positive nuclei fraction z-score” value in assay [4] came to 1.3.

Regarding `C[C@@H](O[C@H]1OCCN(Cc2n[nH]c(=O)[nH]2)[C@H]1c1ccc(F)cc1)c1cc(C(F)(F)F)cc(C(F)(F)F)c1` [Aprepitant], the nucleus area z-score in assay [1] was -0.477. For the same compound, the “total neurite length per nucleus (z-score)” value in assay [2] is -0.348. In addition, in assay [3], the nucleus roundness z-score was determined as 0.17. The “KCl-induced FOS+/EGR-1+ double-positive nuclei fraction z-score” value in assay [4] is -0.0145.

In the case of `Cc1cc2c(cc1CC(=O)c1sccc1S(=O)(=O)Nc1onc(C)c1Cl)OCO2` [Sitaxentan sodium], in assay [1], the nucleus area z-score is 2.41. In addition, the “total neurite length per nucleus (z-score)” value in assay [2] is -1.56. Moreover, in assay [3], the nucleus roundness z-score was -1.41. Further, the “KCl-induced FOS+/EGR-1+ double-positive nuclei fraction z-score” value in assay [4] was -0.407.

On to `Clc1cccc(-c2nnnn2Cc2cccnc2)c1Cl`, for which the nucleus area z-score in assay [1] was -0.244. Also, the “total neurite length per nucleus (z-score)” value in assay [2] is -0.19. Further, in assay [3], the nucleus roundness z-score is 0.0682. The “KCl-induced FOS+/EGR-1+ double-positive nuclei fraction z-score” value in assay [4] is 0.803.

`Clc1ccc(C2(c3ccc(-c4cn[nH]c4)cc3)CCNCC2)cc1`: the nucleus area z-score in assay [1] is -1.93. The “total neurite length per nucleus (z-score)” value in assay [2] came out at 0.326. The compound also yielded a nucleus roundness z-score in assay [3] of 0.51. For the same compound, in assay [4], the “KCl-induced FOS+/EGR-1+ double-positive nuclei fraction z-score” value was -1.25.

In assay [1], `O=C(O)C(S)=Cc1c[nH]c2ccc(F)cc12` displayed a nucleus area z-score of 2.93. For the same compound, the “total neurite length per nucleus (z-score)” value in assay [2] was -0.721. In assay [3], this compound gave a nucleus roundness z-score of -0.497. For the same compound, the “KCl-induced FOS+/EGR-1+ double-positive nuclei fraction z-score” value in assay [4] worked out at 0.739.

With `Cn1c(=O)c2c(ncn2CC(O)CO)n(C)c1=O` (stereo unspecified) [Dyphylline], the nucleus area z-score in assay [1] was determined as 0.244. Also, in assay [2], the “total neurite length per nucleus (z-score)” value was determined as 0.115. Further, the nucleus roundness z-score in assay [3] is 0.0132. In assay [4], the “KCl-induced FOS+/EGR-1+ double-positive nuclei fraction z-score” value was 1.19.

In turn, `C/C(=N\NC(=S)N1CCC1)c1ccccn1` came in with a nucleus area z-score in assay [1] of -16.1. Moreover, the “total neurite length per nucleus (z-score)” value in assay [2] was -4.38. For the same compound, in assay [3], the nucleus roundness z-score was found to be 0.0208. Further, in assay [4], the “KCl-induced FOS+/EGR-1+ double-positive nuclei fraction z-score” value was -7.4.

For `CCc1ccc(CCOc2ccc(CC3SC(=O)NC3=O)cc2)nc1` (stereo unspecified) [Pioglitazone HCl], in assay [1], the nucleus area z-score amounted to 1.11. Also, the “total neurite length per nucleus (z-score)” value in assay [2] is -1.03. The same compound yielded a nucleus roundness z-score in assay [3] of -0.0291. The “KCl-induced FOS+/EGR-1+ double-positive nuclei fraction z-score” value in assay [4] was found to be 0.0569.

Compound `C[C@@H](O)[C@H]1C(=O)N2C(C(=O)O)=C(S[C@@H]3CN[C@H](CNS(N)(=O)=O)C3)[C@H](C)[C@H]12` [Doripenem Hydrate] yielded a nucleus area z-score in assay [1] of -0.146. Further, in assay [2], the “total neurite length per nucleus (z-score)” value is 0.838. The same compound came in with a nucleus roundness z-score in assay [3] of 0.44. Also, the “KCl-induced FOS+/EGR-1+ double-positive nuclei fraction z-score” value in assay [4] stood at 0.4.

`CN1C(=O)[C@@H](NC(=O)c2cc(Cc3ccccc3)on2)COc2ccccc21` registered a nucleus area z-score in assay [1] of -1.97. Also, the “total neurite length per nucleus (z-score)” value in assay [2] was 0.7. In assay [3], this compound displayed a nucleus roundness z-score of -0.308. In assay [4], the “KCl-induced FOS+/EGR-1+ double-positive nuclei fraction z-score” value came out at 2.01.

Compound `O=C(NOCC(O)CO)c1cc(Br)c(F)c(F)c1Nc1ccc(I)cc1F` (stereo unspecified) had a nucleus area z-score in assay [1] of -0.759. In assay [2], the “total neurite length per nucleus (z-score)” value amounted to 0.272. In addition, in assay [3], the nucleus roundness z-score was -0.331. Besides, in assay [4], the “KCl-induced FOS+/EGR-1+ double-positive nuclei fraction z-score” value was -0.652.

On to `CN(C)CCOC(C)(c1ccccc1)c1ccccn1` (stereo unspecified) [Doxylamine Succinate], for which the nucleus area z-score in assay [1] worked out at 0.418. The “total neurite length per nucleus (z-score)” value in assay [2] turned out to be 0.0825. The compound further showed a nucleus roundness z-score in assay [3] of -0.0261. Moreover, the “KCl-induced FOS+/EGR-1+ double-positive nuclei fraction z-score” value in assay [4] turned out to be 3.17.

With `COC(=O)C[C@H](NC(=O)[C@H](C)NC(=O)[C@@H](NC(=O)OCc1ccccc1)C(C)C)C(=O)CF` (Cbz-Val-Ala-Asp(OMe)-CH2F), in assay [1], the nucleus area z-score is -0.248. For the same compound, the “total neurite length per nucleus (z-score)” value in assay [2] turned out to be 0.043. In assay [3], this compound registered a nucleus roundness z-score of 0.702. In addition, the “KCl-induced FOS+/EGR-1+ double-positive nuclei fraction z-score” value in assay [4] was -0.275.

In assay [1], `N#Cc1ccc(-c2c(-c3ncn[nH]3)sc(N3CCOCC3)c2C#N)c(F)c1` had a nucleus area z-score of -6.48. Moreover, the “total neurite length per nucleus (z-score)” value in assay [2] is -1.67. This compound displayed a nucleus roundness z-score in assay [3] of -2.69. Also, the “KCl-induced FOS+/EGR-1+ double-positive nuclei fraction z-score” value in assay [4] was -0.39.

`Nc1ccc(O)c(C(=O)O)c1` [Mesalamine]: in assay [1], the nucleus area z-score was determined as 0.933. Also, the “total neurite length per nucleus (z-score)” value in assay [2] was -0.771. This compound also registered a nucleus roundness z-score in assay [3] of -0.662. Moreover, in assay [4], the “KCl-induced FOS+/EGR-1+ double-positive nuclei fraction z-score” value was 0.0472.

Turning to `N.N.O=C([O-])C[O-].[Pt+2]` [Nedaplatin], in assay [1], the nucleus area z-score was -5.27. In addition, the “total neurite length per nucleus (z-score)” value in assay [2] is 0.0953. Further, in assay [3], the nucleus roundness z-score came out at 1.38. Further, the “KCl-induced FOS+/EGR-1+ double-positive nuclei fraction z-score” value in assay [4] came to 0.725.

Turning to `CS(=O)(=O)c1ccc([C@@H](O)[C@@H](CO)NC(=O)C(Cl)Cl)cc1` [Thiamphenicol], the nucleus area z-score in assay [1] was -0.211. Also, the “total neurite length per nucleus (z-score)” value in assay [2] was -1.47. Also, the nucleus roundness z-score in assay [3] is -0.707. In assay [4], the “KCl-induced FOS+/EGR-1+ double-positive nuclei fraction z-score” value is -0.415.

The compound `CCCCCCCC(=O)N[C@H](CN1CCCC1)[C@H](O)c1ccc2c(c1)OCCO2` [Eliglustat Tartrate] showed a nucleus area z-score in assay [1] of -0.0423. The “total neurite length per nucleus (z-score)” value in assay [2] turned out to be 1.32. In assay [3], this compound came in with a nucleus roundness z-score of 0.511. Also, the “KCl-induced FOS+/EGR-1+ double-positive nuclei fraction z-score” value in assay [4] was 0.302.

Consider `CN[C@H]1CC[C@@H](c2ccc(Cl)c(Cl)c2)c2ccccc21` [Sertraline HCl], for which, in assay [1], the nucleus area z-score was -1.37. Besides, the “total neurite length per nucleus (z-score)” value in assay [2] was -0.105. Further, the nucleus roundness z-score in assay [3] was -0.783. Besides, in assay [4], the “KCl-induced FOS+/EGR-1+ double-positive nuclei fraction z-score” value came to 0.213.

`O=C1NC(=O)/C(=C/c2ccc3c(c2)OC(F)(F)O3)S1` yielded a nucleus area z-score in assay [1] of 0.0688. Besides, the “total neurite length per nucleus (z-score)” value in assay [2] is 1.27. For the same compound, in assay [3], the nucleus roundness z-score is 0.523. For the same compound, the “KCl-induced FOS+/EGR-1+ double-positive nuclei fraction z-score” value in assay [4] turned out to be 0.207.

In assay [1], `CCCCC(=O)N(Cc1ccc(-c2ccccc2-c2nnn[nH]2)cc1)[C@H](C(=O)O)C(C)C.CCOC(=O)[C@H](C)C[C@@H](Cc1ccc(-c2ccccc2)cc1)NC(=O)CCC(=O)O` yielded a nucleus area z-score of 0.266. Also, the “total neurite length per nucleus (z-score)” value in assay [2] turned out to be 0.207. The compound also returned a nucleus roundness z-score in assay [3] of 0.473. In addition, the “KCl-induced FOS+/EGR-1+ double-positive nuclei fraction z-score” value in assay [4] is 0.265.

In assay [1], `OC[C@@H](O)[C@H](O)[C@@H](O)CO` [Xylitol] gave a nucleus area z-score of 0.703. For the same compound, in assay [2], the “total neurite length per nucleus (z-score)” value is -0.0854. Besides, the nucleus roundness z-score in assay [3] stood at 0.496. For the same compound, in assay [4], the “KCl-induced FOS+/EGR-1+ double-positive nuclei fraction z-score” value was -1.01.

With `CCN1CC(CCN2CCOCC2)C(c2ccccc2)(c2ccccc2)C1=O` (stereo unspecified) [Doxapram HCl], in assay [1], the nucleus area z-score came out at 0.517. The “total neurite length per nucleus (z-score)” value in assay [2] was 0.542. This compound also had a nucleus roundness z-score in assay [3] of 0.648. The “KCl-induced FOS+/EGR-1+ double-positive nuclei fraction z-score” value in assay [4] was found to be 1.05.

The compound `O=c1c(O)c(-c2ccc(O)c(O)c2)oc2cc(O)cc(O)c12` [Quercetin] registered a nucleus area z-score in assay [1] of 0.0123. The “total neurite length per nucleus (z-score)” value in assay [2] was 0.34. Also, the nucleus roundness z-score in assay [3] is -0.0551. For the same compound, in assay [4], the “KCl-induced FOS+/EGR-1+ double-positive nuclei fraction z-score” value came to 1.17.

The compound `CC(C)=CCC/C(C)=C/CC/C(C)=C/CSc1ccccc1C(=O)O` [Salirasib] gave a nucleus area z-score in assay [1] of 0.822. The “total neurite length per nucleus (z-score)” value in assay [2] is -0.527. In assay [3], this compound returned a nucleus roundness z-score of -0.488. Besides, in assay [4], the “KCl-induced FOS+/EGR-1+ double-positive nuclei fraction z-score” value amounted to 0.524.

In assay [1], `C[C@@H](Oc1ccc2[nH]nc(/C=C/c3cnn(CCO)c3)c2c1)c1c(Cl)cncc1Cl` displayed a nucleus area z-score of 0.402. For the same compound, in assay [2], the “total neurite length per nucleus (z-score)” value amounted to 1.21. This compound had a nucleus roundness z-score in assay [3] of -0.261. Moreover, the “KCl-induced FOS+/EGR-1+ double-positive nuclei fraction z-score” value in assay [4] is -0.289.

In assay [1], `CC(C(=O)O)c1ccc2c(c1)[nH]c1ccc(Cl)cc12` (stereo unspecified) [Carprofen] yielded a nucleus area z-score of 0.106. Further, in assay [2], the “total neurite length per nucleus (z-score)” value came out at 1.01. In addition, in assay [3], the nucleus roundness z-score worked out at 0.381. In addition, the “KCl-induced FOS+/EGR-1+ double-positive nuclei fraction z-score” value in assay [4] is -0.726.

Consider `O=c1[nH]cc(F)c(=O)[nH]1` [Fluorouracil (5-Fluoracil_ 5-FU)], for which the nucleus area z-score in assay [1] was found to be 0.976. Further, the “total neurite length per nucleus (z-score)” value in assay [2] is 0.253. Moreover, the nucleus roundness z-score in assay [3] amounted to 0.473. Also, the “KCl-induced FOS+/EGR-1+ double-positive nuclei fraction z-score” value in assay [4] worked out at 0.283.
